Laboratory results: US20030139331A1, “Treatment of cancer by reduction of intracellular energy and pyrimidines” (priority 2000, published 2003)
At least one compound was matched to its structure with a doubt left. Marks after values point to notes of the source that are not given here.

Test system: 1st passage tumor transplants of CD8F1 spontaneous breast tumors
Test: Effect of MMPR + 6-AN + PALA on tumor ATP pools in CD8F1 mice
Type: in vivo

## CSc1ncnc2c1ncn2[C@@H]1O[C@H](CO)[C@@H](O)[C@H]1O [MMPR, 6-methylmercaptopurine riboside]
Seventh series copy of Table 1, 24 hr
  24 HR ug A TPI mg ± S.E: 3.3^b ± 0.96 ug A TPI mg
Seventh series copy of Table 1, 48 hr
  48 HR ug A TPI mg ± S.E: 1.6^b ± 0.59 ug A TPI mg
Seventh series copy of Table 1, 72 hr
  72 HR uglA TP mg ± S.E: 9.0^d ± 2.4 uglA TP mg
Seventh series copy of Table 1, tumor ATP pool 6 hr after i.p. injection
  6 HW ug A TPI mq ± S.E: 3.3^c ± 0.32 ug A TPI mq
Tumor ATP pool 6 hr after i.p. injection, label subscript = mg/kg, mean ± S.E.
  6 HR ug ATP/mg ± S.E: 3.3^c ± 0.32 ug ATP/mg
Tumor ATP pool 24 hr after i.p. injection, mean ± S.E.
  24 HR ug ATP/mg ± S.E: 3.3^b ± 0.96 ug ATP/mg
Tumor ATP pool 48 hr after i.p. injection, mean ± S.E.
  48 HR ug ATP/mg ± S.E: 1.6^b ± 0.59 ug ATP/mg
Tumor ATP pool 72 hr after i.p. injection, mean ± S.E.
  72HR ug/ATP mg ± S.E: 9.0^d ± 2.4 ug/ATP mg
